Test results as given in publication PMC11564547, “An interaction network of inner centriole proteins organised by POC1A-POC1B heterodimer crosslinks ensures centriolar integrity” (Nature Communications, 2024).
Results are given in words; binding and its absence hold for the method and conditions named. Binding seen in cells or lysates may run through a third protein. For some assays here: Binding calls can cover weak binding; strength is not graded here. Sequences can lack the tags named with a protein. One block for each molecule: values may come before it.

How the values were obtained:
[1] = biological target: T1, FAM161A-HA (UniProt Q3B820); assay: co-IP; HA IP from HEK293T cells co-expressing HA-tagged FAM161A (bait) and FLAG-tagged POC1 constructs (prey); same lysis and washes; beads boiled in Laemmli buffer; immunoblot
T1 sequence: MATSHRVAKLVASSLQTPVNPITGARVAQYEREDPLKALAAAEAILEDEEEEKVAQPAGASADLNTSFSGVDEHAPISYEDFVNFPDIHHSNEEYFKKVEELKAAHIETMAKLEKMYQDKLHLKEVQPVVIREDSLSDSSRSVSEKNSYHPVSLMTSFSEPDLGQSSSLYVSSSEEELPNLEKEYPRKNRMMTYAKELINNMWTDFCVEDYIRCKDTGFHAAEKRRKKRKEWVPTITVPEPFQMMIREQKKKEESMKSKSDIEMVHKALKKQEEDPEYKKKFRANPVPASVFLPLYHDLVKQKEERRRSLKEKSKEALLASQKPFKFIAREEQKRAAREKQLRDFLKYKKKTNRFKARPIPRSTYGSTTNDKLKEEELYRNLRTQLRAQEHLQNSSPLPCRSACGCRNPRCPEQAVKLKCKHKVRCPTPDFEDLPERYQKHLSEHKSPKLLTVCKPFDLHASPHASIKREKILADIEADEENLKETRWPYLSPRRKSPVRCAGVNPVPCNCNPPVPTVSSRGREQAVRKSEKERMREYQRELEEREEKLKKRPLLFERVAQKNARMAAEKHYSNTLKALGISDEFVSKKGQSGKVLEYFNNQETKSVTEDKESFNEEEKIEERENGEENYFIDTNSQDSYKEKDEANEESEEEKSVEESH

[2] = biological target: FLAG-tagged WD40 domain of POC1A (human); assay: co-IP; FLAG IP from HEK293T cells co-expressing FLAG-tagged POC1 constructs (bait) and HA-tagged partners (prey), Dox-induced, harvested after 24 h; lysis 150 mM NaCl, 10 mM Tris-Cl pH 7.5, 0.5 mM EDTA, 0.5% NP-40, Benzonase; beads 1 h at 4 °C; washes 300 mM NaCl; elution with FLAG peptide; immunoblot
[3] = biological target: FLAG-tagged WD40 domain of POC1B (human); assay: as above
[4] = biological target: FLAG-tagged C-terminal coiled-coil region of POC1A (human); assay: as above
[5] = biological target: FLAG-tagged C-terminal coiled-coil region of POC1B (human); assay: as above

Molecule: FLAG-tagged C-terminal coiled-coil region of POC1A (human) (domain or fragment)
binding [1]: no binding

Molecule: FLAG-tagged C-terminal coiled-coil region of POC1B (human) (domain or fragment)
binding [1]: no binding

B1: MDM1-HA (protein, UniProt Q8TC05 1-714)
chain: MPVRFKGLSEYQRNFLWKKSYLSESCNSSVGRKYPWAGLRSDQLGITKEPSFISKRRVPYHDPQISKSLEWNGAISESNVVASPEPEAPETPKSQEAEQKDVTQERVHSLEASRVPKRTRSHSADSRAEGASDVENNEGVTNHTPVNENVELEHSTKVLSENVDNGLDRLLRKKAGLTVVPSYNALRNSEYQRQFVWKTSKETAPAFAANQVFHNKSQFVPPFKGNSVIHETEYKRNFKGLSPVKEPKLRNDLRENRNLETVSPERKSNKIDDRLKLEAEMELKDLHQPKRKLTPWKHQRLGKVNSEYRAKFLSPAQYLYKAGAWTHVKGNMPNQVKELREKAEFYRKRVQGTHFSRDHLNQILSDSNCCWDVSSTTSSEGTVSSNIRALDLAGDPTSHKTLQKCPSTEPEEKGNIVEEQPQKNTTEKLGVSAPTIPVRRRLAWDTENTSEDVQKQPGEKEEEDDNEEEGDRKTGKQAFMGEQEKLDVREKSKADKMKEGSDSSVSSEKGGRLPTPKLRELGGIQRTHHDLTTPAVGGAVLVSPSKMKPPAPEQRKRMTSQDCLETSKNDFTKKESRAVSLLTSPAAGIKTVDPLPLREDSEDNIHKFAEATLPVSKIPKYPTNPPGQLPSPPHVPSYWHPSRRIQGSLRDPEFQHNVGKARMNNLQLPQHEAFNDEDEDRLSEISARSAASSLRAFQTLARAKKRKENFWGKT
binding [2]: no binding | binding [3]: no binding | binding [4]: binds | binding [5]: binds

Next, values leading:

binding [1]: no binding
Molecule: FLAG-tagged WD40 domain of POC1A (human) (domain or fragment)

binding [1]: no binding
Molecule: FLAG-tagged WD40 domain of POC1B (human) (domain or fragment)
